{
  "source": "patent US8952213B2",
  "about": "“Neuronal activation in a transgenic model” (The Board of Trustees of the Leland Stanford Junior …, priority 2002, dated 2015)",
  "key": {"[1]": {"tested_on": "c-fos expression", "details": "administration of the drug; cited from earlier work"}, "[2]": {"tested_on": "fosGFP expression", "experiment": "Pharmacological induction of fosGFP in fosGFP transgenic mice", "assay_type": "in vivo, mouse"}},
  "note": "At least one structure is not confirmed: it was looked up by name or label, or the drawing left a doubt.",
  "data": [
    {"compound": "CN1CCN(C2=Nc3cc(Cl)ccc3Nc3ccccc32)CC1", "note": "[clozapine]", "values": [
      {"measurement": "c-fos expression throughout the CNS", "setting": "[1]", "value": "induces a characteristic pattern of c-fos expression"},
      {"measurement": "fosGFP fluorescent neurons in brain areas", "setting": "[2]; brain areas known to express c-fos under these conditions (prefrontal/cingulated cortex, lateral septal nucleus, nucleus accumbens, striatum monitored), versus PBS-injected animals", "value": "induced fosGFP fluorescent neurons in a variety of brain areas"},
      {"measurement": "fosGFP induction compared to control PBS injected animals", "setting": "[2]; fosGFP transgenic lines 1-3 and 5-1", "value": "strong fosGFP induction"},
      {"measurement": "fosGFP expression in the striatum", "setting": "[2]; line 5-1, compared to control PBS-injected animals, FIG. 9 panels E, F", "value": "increased fosGFP expression"},
      {"measurement": "fosGFP expression in the nucleus accumbens", "setting": "[2]; line 5-1, compared to control PBS-injected animals, FIG. 9 panels G, H", "value": "Increased fosGFP expression"}
    ]}
  ]
}
